# Source: the supplement of paper PMC6143611
# Values joined by “and” are separate entries in the source; they are usually repeats but may differ in a detail not shown here. Identical values can stand only once. Counter-ions that a name gives are not always drawn. ± gives the uncertainty stated by the source. This is one part of the list. Plates or batches differ in their baseline, so values are only roughly comparable.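 Larvae carried a heat-shock-induced fluorescent stripe in rod outer segments, set at 6 dpf; the shedding distance runs from this stripe to the outer segment tip, measured in confocal stacks, about three fish per compound. The controls got 0.2% DMSO vehicle, and the paper flagged compounds with at least a 20% change against the same-week control and p < 0.001 (Dunnett test on mixed-effects models).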
# Tested on: Danio rerio larva rod photoreceptor outer segment
# Experiment: rod outer segment growth distance Dg, difference from same-week DMSO control mean; higher = more outer segment growth
# Conditions: 20 µM; treatment time: 4 days (6-10 dpf)
row,SMILES,rod outer segment growth distance Dg
1,CCCCCCCCOc1ccccc1C(=O)Nc1ccc(C(=O)OCC[N+](C)(CC)CC)cc1 [Otilonium Bromide],1.22 ± 0.14 um
2,COc1ccc(COc2cc3oc(=O)c4cc(C(C)O)ccc4c3cc2OC)cc1 (configuration not stated) [Palomid 529 (P529)],-2.44 ± 0.38 um
3,CN(C)C(=O)COC(=O)Cc1ccc(OC(=O)c2ccc(NC(=N)N)cc2)cc1 [Camostat Mesilate],0.05 ± 0.18 um
4,CO/N=C(\C(=O)N[C@@H]1C(=O)N2C(C(=O)O)=C(CSC(=O)c3ccco3)CS[C@H]12)c1csc(N)n1 [Ceftiofur HCl],-0.94 ± 0.2 um
5,CCOc1nc2cccc(C(=O)O)c2n1Cc1ccc(-c2ccccc2-c2nnn[nH]2)cc1 [Candesartan],0.26 ± 0.16 um
6,N#CC[C@H](C1CCCC1)n1cc(-c2ncnc3[nH]ccc23)cn1,0.39 um and 0.69 um
7,OCCn1cc(-c2cnc3nnn(Cc4ccc5ncccc5c4)c3n2)cn1,-0.98 ± 0.17 um
8,CC(=O)N1CCN(CCOc2ccc(C3CCN(C4=Nn5c(nnc5C(F)(F)F)CC4)CC3)cc2)CC1,-1.12 ± 0.19 um
9,CC1(C)O[C@@H]2C[C@H]3[C@@H]4CCC5=CC(=O)C=C[C@]5(C)[C@H]4[C@@H](O)C[C@]3(C)[C@]2(C(=O)CO)O1 [Desonide],0.05 ± 0.29 um
10,CN(Cc1cnc2nc(N)nc(N)c2n1)c1ccc(C(=O)N[C@@H](CCC(=O)O)C(=O)O)cc1 [Methotrexate],0.65 ± 0.22 um
11,COc1c(C)c2c(c(O)c1C/C=C(\C)CCC(=O)OCCN1CCOCC1)C(=O)OC2 [Mycophenolate Mofetil],-0.73 ± 0.23 um
12,CC1=C(CC(=O)O)c2cc(F)ccc2/C1=C\c1ccc([S+](C)[O-])cc1 (configuration not stated) [Sulindac],-0.6 ± 0.22 um
